Assay results as given in PubChem BioAssay AID540336 (Broad Institute, 2011).
Screen size: about 330,000 compounds; about 520 (0.16%) were called active. The shares of active, inactive and inconclusive entries below differ from those in the screen.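 How the source made its calls: active means inhibition of at least 50% in every replicate; inconclusive means best replicate reaches 50% inhibition but some replicates fall short; inactive means the rest.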

Chains of the proteins cited; added tags and fusions are not shown.
UniProt Q5AAJ8, whole entry, looked up: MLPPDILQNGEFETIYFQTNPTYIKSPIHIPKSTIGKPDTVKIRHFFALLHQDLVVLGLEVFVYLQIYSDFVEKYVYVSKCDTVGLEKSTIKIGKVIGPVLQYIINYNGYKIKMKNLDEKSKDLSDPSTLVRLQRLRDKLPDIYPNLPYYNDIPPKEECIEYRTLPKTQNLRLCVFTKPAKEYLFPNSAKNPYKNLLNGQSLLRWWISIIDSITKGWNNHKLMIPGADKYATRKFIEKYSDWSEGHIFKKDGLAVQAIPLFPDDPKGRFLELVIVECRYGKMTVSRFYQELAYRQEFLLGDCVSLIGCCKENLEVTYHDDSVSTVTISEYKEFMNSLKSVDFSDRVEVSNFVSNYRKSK

What follows are compounds tested against Histone acetyltransferase RTT109 (Candida albicans (strain SC5314 / ATCC MYA-2876)) (UniProt Q5AAJ8) (assay: Rtt109-Vps75 histone acetyltransferase blockade – biochemical, ThioGlo CoA-SH fluorescence, plate reader, primary screen (AID 540336)). Settings: purified Rtt109/Vps75, ThioGlo CoA-SH fluorescence, 4 h; at 34.9 µM; hits give high values.

Compound | inhibition
COc1ccc(-c2nc3ccccc3c(=O)n2CCOc2ccc(C)cc2C)cc1 | inactive: -0.215%
FC(F)(F)c1cccc(OCc2noc(-c3ccsc3)n2)c1 | inconclusive: 21.5%
Cc1ccc2nc(N(CCCN(C)C)C(=O)c3sc4ccccc4c3Cl)sc2c1 | active: 54.8%
O=C(Cn1nnc2ccccc2c1=O)NCCc1ccccc1 | inactive: -0.0495%
COc1ccc(OCCN(C)Cc2c(O)ccc3ccccc23)cc1 | inconclusive: 58.7%
COc1ccc(CCNC(=O)C2CC(O)CN2S(=O)(=O)c2ccc(Cl)cc2)cc1OC (stereo unspecified) | inconclusive: 19.2%
CSS(=O)(=O)c1cccc2cccnc12 | active: 132%
O=C(CCN1C(=O)/C(=C/c2ccccc2F)SC1=S)Nc1cccnc1 | inactive: -5.7%
COC(=O)c1[nH]c2ccccc2c1NC(=O)CN1CCN(c2cccc(Cl)c2)CC1 | inconclusive: 85%
CC(C)(C)c1ccc(OCC(=O)N/N=C/C2CC=CCC2)cc1 (stereo unspecified) | inactive: 13.9%
COc1cc(S(=O)(=O)n2nc(C)cc2C)c(OC)cc1Cl | active: 64.6%
CCn1nc(C)c(CNC(=O)c2ccc(OC3CCN(Cc4ccccn4)CC3)cc2)c1C | inactive: -1.2%
CCOC(=O)C1=C(O)/C(=C/c2ccc(-c3ccccc3C(=O)O)o2)SC1=Nc1ccc(C)cc1 | inconclusive: 47.4%
COc1cc(OC)c(OC)cc1CCC(C)NCCC(c1ccccc1)c1ccccc1 (stereo unspecified) | inconclusive: 39.3%
COCCNS(=O)(=O)c1ccc2c(c1)C(=NO)c1cc(S(=O)(=O)NCCOC)ccc1-2 | active: 52.5%
Cc1c(NC(=O)CN2CCN(c3ccc([N+](=O)[O-])cc3)CC2)c(=O)n(-c2ccccc2)n1C | inconclusive: 39%
CCOC(=O)C1CCN(C(=O)c2sc3nc(-c4ccc(F)cc4)cn3c2C)CC1 | inactive: -0.601%
C#CCOc1ccccc1CNc1ccccc1 | inconclusive: 20.9%
COC(=O)/C=C\C(=O)Nc1cccc([N+](=O)[O-])c1 | active: 68.2%
COc1cc(/C=N/N=C(N)N)ccc1OCc1ccccc1Cl | active: 69%
CN1CCN(c2ccc(Cl)cc2NC(=O)c2ccc(=O)n(C)n2)CC1 | inconclusive: 71.2%
Cc1ccc(N(CCC(=O)O)S(=O)(=O)c2ccc(C)cc2)cc1 | inactive: 1.73%
O=C(O)COc1ccccc1O | active: 60.2%
CC[C@]12c3[nH]c4cc(-c5ccco5)ccc4c3CCN1C(=O)[C@@H](CC(=O)NCCCN(C)C)C[C@@H]2C(=O)N1CCN(C(=O)c2ccco2)CC1 | inconclusive: 27.9%
CCO[C@H]1OC(C(=O)N2CCCCCCC2)=C[C@@H](c2ccc(C(F)(F)F)cc2)[C@@H]1CCCO | inconclusive: 32.1%
CCCCCc1ccc(OCCOCCn2c[n+](C)c3ccccc32)c(CCCCC)c1 | active: 80.5%

Looked up by structure from the list above:
Compound | inhibition
CCOC(=O)C1=C(O)/C(=C/c2ccc(-c3ccccc3C(=O)O)o2)SC1=Nc1ccc(C)cc1 | inconclusive: 47.4%
CC(C)(C)c1ccc(OCC(=O)N/N=C/C2CC=CCC2)cc1 (stereo unspecified) | inactive: 13.9%
C#CCOc1ccccc1CNc1ccccc1 | inconclusive: 20.9%

(listing goes on)

Compound | inhibition
CC1CCN(c2nc(CN3CCCCC3)nc3scc(-c4ccccc4)c23)CC1 | active: 61%
O=C1CC(Sc2nnnn2C2CCCCC2)C(=O)N1c1ccccc1 (stereo unspecified) | inconclusive: 57.8%
O=C(CCN1C(=O)/C(=C\c2ccccc2F)SC1=S)Nc1ccc(C(=O)O)c(O)c1 | inconclusive: 31%
COc1cc(/C=N/NC(=O)C(Cc2c[nH]c3ccccc23)NC(=O)OCc2ccccc2)cc([N+](=O)[O-])c1O (stereo unspecified) | inconclusive: 46.2%
CC(=O)C1CCC2C3CC=C4CC(SC(=N)N)CCC4(C)C3CCC12C (stereo unspecified) | inactive: -1.14%
COc1ccccc1OCc1nc(C#N)c(NCCCn2ccnc2)o1 | inconclusive: 35.9%
O=C(COC(=O)C1CC1)Nc1ccc(Cl)cn1 | inconclusive: 25.1%
COc1ccc([C@H]2/C=C\CN(C(=O)CC(C)(C)C)[C@@H](C)C(=O)N2Cc2ccc(F)cc2)cc1 | inactive: 2.44%
CCC(=O)N1CCN(c2ccc(NC(=S)NC(=O)c3cccc([N+](=O)[O-])c3)cc2)CC1 | inconclusive: 20.5%
C#CCOCCOCCOCCNc1nc(N2CCN(C(=O)[C@H]([C@@H](C)CC)n3cc([C@@H](N)CC(C)C)nn3)CC2)nc(N2CCN(C(=O)[C@H](CCCCN)n3cc([C@@H](N)CO)nn3)CC2)n1 | inconclusive: 48.3%
C#CCOCCOCCOCCNc1nc(N2CCN(C(=O)CCCCCCCCCCNC(=O)[C@@H](CCC(=O)O)n3cc(CCCCCN)nn3)CC2)nc(N2CCN(C(=O)CCCCCCCCCCNC(=O)[C@H](CO)n3cc(CCCCCN)nn3)CC2)n1 | inconclusive: 30.4%
Cc1cc(-c2cn3ccccc3n2)c(C)n1-c1ccccc1 | inconclusive: 37.2%
Cc1cc(NS(=O)(=O)c2ccc(Nc3nc(-c4sc(N)nc4C)cs3)cc2)no1 | inconclusive: 58.9%
CC(C)(C)c1ccc(C(=O)NCCOc2ccccc2F)cc1 | inconclusive: 32.5%
Cc1ccc(C(C)C)c(OCc2nn(CC(=O)c3ccc(OC(F)F)cc3)c3[n+]2CCCCC3)c1 | inconclusive: 55.3%
O=C1/C(=C/c2ccc(F)cc2)SC(=S)N1CC(=O)N1CCCCC1c1cccnc1 (stereo unspecified) | active: 52.7%
CCn1c(CCn2c3ccccc3c3ccccc32)n[nH]c1=S | active: 50.3%
C/C(=N/N=C/c1ccccc1O)c1ccccc1O | inactive: 2.62%
C[C@@H](NC(=O)OC(C)(C)C)c1nnc(S(=O)(=O)Cc2ccccc2)o1 | inconclusive: 40%
CC(=O)c1ccc(OCC(=O)OCC(=O)N(CC(C)C)c2c(N)n(Cc3ccccc3)c(=O)[nH]c2=O)cc1 | inactive: 25.3%
C#CCOCCOCCOCCNc1nc(N2CCN(C(=O)C([C@@H](C)O)n3cc([C@@H](N)CCCCN)nn3)CC2)nc(N2CCN(C(=O)C([C@@H](C)O)n3cc([C@@H](N)CCCCN)nn3)CC2)n1 (stereo partly specified) | active: 73.3%
CCC/S(C)=N/S(=O)(=O)c1ccc(C)cc1 (stereo unspecified) | inconclusive: 29.8%
Cc1ccc(/C=N/n2c(-c3ccccc3)n[nH]c2=S)cc1 | inactive: 4.39%
Cn1c(=O)c2c(ncn2CC(=O)Nc2nc(-c3ccc(F)c(F)c3)cs2)n(C)c1=O | inactive: 4.07%
CCCn1c(SCC(=O)Nc2cc(C)on2)nc2c1c(=O)n(C)c(=O)n2C | inactive: -1.77%
